## Drug screen on melanoma cell lines: apoptosis marker

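Human melanoma cell lines in 1,536-well plates were treated with two drugs together for 72 h, then fixed, stained and imaged. Values are the share of nuclei positive for cleaved PARP as a percentage of the same share in the DMSO control: 100 is the control level, higher means more apoptosis. Concentrations were fixed for each drug; these are the higher of two levels. No replicate spread is given; individual values may be noisy. Basal and induced levels differ widely between cell lines.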
This is part of the screen, not chosen by result.
A dash means that no value is listed here.

All values are for the listed drug together with indole-3-carbinol (4 µM): OCc1c[nH]c2ccccc12

| Second drug | SK-MEL-30 | COLO 829 | SK-MEL-2 | COLO 792 | UACC-62 | LB2518-MEL | MeWo |
|---|---|---|---|---|---|---|---|
| Cc1cc(Nc2cc(N3CCN(C)CC3)nc(Sc3ccc(NC(=O)C4CC4)cc3)n2)n[nH]1 at 0.03 µM | 113 | 143 | 91.6 | 175 | 194 | 282 | 199 |
| Clc1ccc(Nc2nnc(Cc3ccncc3)c3ccccc23)cc1 at 10 µM | 73.4 | 205 | 48.6 | 39.0 | 111 | - | 187 |
| COc1cc2c(Oc3ccc4[nH]c(C)cc4c3F)ncnc2cc1OCCCN1CCCC1 at 2 µM | 85.6 | 146 | 117 | 136 | 57.4 | 52.1 | 97.3 |
| O=C(CCCCCCC(=O)Nc1ccccc1)NO at 0.4 µM | 97.7 | 109 | 98.9 | 164 | 148 | 107 | 61.7 |
| CN(C)S(=O)(=O)c1ccc2c(c1)/C(=C/c1cc3c([nH]1)CCCC3)C(=O)N2 at 2 µM | 254 | 157 | 53.5 | 63.2 | 130 | 105 | 212 |
| Cc1cn(-c2cc(NC(=O)c3ccc(C)c(Nc4nccc(-c5cccnc5)n4)c3)cc(C(F)(F)F)c2)cn1 at 1 µM | 84.7 | 67.1 | 103 | 73.2 | 216 | 37.3 | 63.3 |
| Cc1cc(Nc2cc(N3CCN(C)CC3)nc(/C=C/c3ccccc3)n2)n[nH]1 at 0.2 µM | 126 | 54.0 | 75.1 | 206 | 165 | 259 | 71.8 |
| Oc1nc(-c2ccc(C(F)(F)F)cc2)nc2c1CSCC2 at 10 µM | 94.0 | 59.0 | 86.3 | 78.7 | 142 | 108 | 88.5 |
| CCN(CC)CCNC(=O)c1c(C)[nH]c(/C=C2\C(=O)Nc3ccc(F)cc32)c1C at 2 µM | 278 | 122 | 106 | 235 | 266 | 225 | 140 |
| CCCS(=O)(=O)Nc1ccc(F)c(C(=O)c2c[nH]c3ncc(Cl)cc23)c1F at 0.4 µM | 114 | 209 | 93.5 | 50.7 | 438 | - | 90.6 |
| O=C(Oc1ccc([N+](=O)[O-])cc1)N1CCC(C(O)(c2ccc3c(c2)OCO3)c2ccc3c(c2)OCO3)CC1 at 5 µM | 102 | 79.6 | 122 | 121 | 108 | 31.5 | 297 |
| CNC(=O)c1cc(Oc2ccc(NC(=O)Nc3ccc(Cl)c(C(F)(F)F)c3)cc2)ccn1 at 2 µM | 50.0 | 77.9 | 100 | 132 | 207 | 358 | 55.1 |
| O=C(O)c1ccc(-c2c[nH]c3ncc(-c4ccccc4)cc23)cc1C1CCCC1 at 0.8 µM | 179 | 138 | 210 | 188 | 133 | 118 | 290 |
| Nc1ccn([C@@H]2O[C@H](CO)[C@@H](O)C2(F)F)c(=O)n1 at 0.002 µM | 82.8 | 533 | 130 | 94.8 | 46.7 | 119 | 189 |
| C[C@]12O[C@H](C[C@]1(O)CO)n1c3ccccc3c3c4c(c5c6ccccc6n2c5c31)CNC4=O at 0.02 µM | 112 | 99.6 | 204 | 215 | 138 | 465 | 179 |
| C[C@@H](N)c1ccc(C(=O)Nc2ccnc3[nH]ccc23)cc1 at 2 µM | 88.6 | 90.9 | 249 | 208 | 201 | 92.8 | 85.9 |
| NCC(=O)Nc1ccc(-n2nc(C(F)(F)F)cc2-c2ccc3c(ccc4ccccc43)c2)cc1 at 5 µM | 577 | 31.7 | - | 318 | 154 | - | 96.4 |
| CCCCCCCCCCCCCCCCCCOP(=O)([O-])OC1CC[N+](C)(C)CC1 at 2 µM | 52.0 | 180 | 115 | 64.8 | 80.6 | 143 | 54.7 |
| C#Cc1cccc(Nc2ncnc3cc(OCCOC)c(OCCOC)cc23)c1 at 4 µM | 28.6 | 28.6 | 187 | 331 | 184 | 218 | 92.1 |
| Cn1c(=O)n(-c2ccc(C(C)(C)C#N)cc2)c2c3cc(-c4cnc5ccccc5c4)ccc3ncc21 at 0.02 µM | 158 | 91.9 | 201 | 147 | 244 | 268 | 98.3 |
| C[C@]1(O)C[C@@H](c2nc(-c3ccc4ccc(-c5ccccc5)nc4c3)c3c(N)nccn32)C1 at 2 µM | 113 | 119 | 97.5 | 116 | 118 | 73.6 | 89.1 |
| COc1cc(Nc2ncc(F)c(Nc3ccc4c(n3)NC(=O)C(C)(C)O4)n2)cc(OC)c1OC at 2 µM | 96.0 | 84.1 | 157 | 559 | 80.9 | 52.8 | 161 |
| Cc1cc(SCc2sc(-c3ccc(C(F)(F)F)c(F)c3)nc2C)ccc1OCC(=O)O at 10 µM | 45.4 | 127 | 84.6 | 47.4 | 78.5 | 52.4 | 104 |
| O=C(O)c1ccc2c(c1)nc(Nc1cccc(Cl)c1)c1ccncc12 at 2 µM | 83.4 | 187 | 248 | 267 | 192 | 55.6 | 100 |
| COc1cc([C@@H]2c3cc4c(cc3[C@@H](O[C@@H]3O[C@@H]5CO[C@@H](C)O[C@H]5[C@H](O)[C@H]3O)[C@H]3COC(=O)[C@H]23)OCO4)cc(OC)c1O at 0.1 µM | 43.0 | 112 | 264 | 63.5 | 101 | 111 | - |
| CO[C@@H]1[C@H](N(C)C(=O)c2ccccc2)C[C@H]2O[C@]1(C)n1c3ccccc3c3c4c(c5c6ccccc6n2c5c31)C(=O)NC4 at 0.4 µM | 151 | 238 | 79.2 | 180 | 55.4 | 69.1 | 130 |
| O=C(O)[C@@H]1[O][Sb](=[O])([O][Sb]2(=[O])[O][C@H]([C@H](O)CO)[C@H](O)[C@H](C(=O)O)[O]2)[O][C@H]([C@H](O)CO)[C@@H]1O (stereo not given in full) at 10 µM | 214 | 45.3 | 105 | 37.4 | 276 | 66.5 | 109 |
| NC1(c2ccc(-c3nc4ccn5c(=O)[nH]nc5c4cc3-c3ccccc3)cc2)CCC1 at 2 µM | 89.5 | 53.7 | 191 | 172 | 222 | 102 | 35.1 |
| Oc1cc(-c2nc(-c3ccccc3)[nH]c2-c2ccncc2)ccc1Cl at 1 µM | 177 | 123 | 497 | 48.0 | 300 | 118 | 144 |
| O=C1NC(=O)/C(=C/c2ccc(-c3ccc(F)cc3O)o2)S1 at 5 µM | 142 | 49.3 | 119 | 43.2 | 60.0 | 195 | 82.9 |
| CC1(C)CCC(c2ccc(Cl)cc2)=C(CN2CCN(c3ccc(C(=O)NS(=O)(=O)c4ccc(N[C@H](CCN5CCOCC5)CSc5ccccc5)c(S(=O)(=O)C(F)(F)F)c4)cc3)CC2)C1 at 2 µM | 428 | 146 | 242 | 2890 | 128 | 154 | 186 |
| C=C(c1ccc(C(=O)O)cc1)c1cc2c(cc1C)C(C)(C)CCC2(C)C at 10 µM | 42.1 | 173 | 84.2 | 125 | 194 | 73.2 | 32.6 |
| CN(c1ncccc1CNc1nc(Nc2ccc3c(c2)CC(=O)N3)ncc1C(F)(F)F)S(C)(=O)=O at 0.4 µM | 128 | 241 | 160 | 171 | 196 | 36.0 | 109 |
| CCN(CC)CCCCNc1ncc2cc(-c3cc(OC)cc(OC)c3)c(NC(=O)NC(C)(C)C)nc2n1 at 0.5 µM | 255 | 60.2 | 140 | 111 | 67.0 | 123 | 62.6 |

The first 3 entries again:

Second drug,SK-MEL-30,COLO 829,SK-MEL-2,COLO 792,UACC-62,LB2518-MEL,MeWo
Cc1cc(Nc2cc(N3CCN(C)CC3)nc(Sc3ccc(NC(=O)C4CC4)cc3)n2)n[nH]1 at 0.03 µM,113,143,91.6,175,194,282,199
Clc1ccc(Nc2nnc(Cc3ccncc3)c3ccccc23)cc1 at 10 µM,73.4,205,48.6,39.0,111,-,187
COc1cc2c(Oc3ccc4[nH]c(C)cc4c3F)ncnc2cc1OCCCN1CCCC1 at 2 µM,85.6,146,117,136,57.4,52.1,97.3

From a melanoma drug combination screen (doi:10.1371/journal.pone.0140310); values rounded.